From patent publication US20070065410A1
These are yes or no findings as the source states them, for the method shown. Binding calls can cover weak binding; strength is not graded here.

Molecular target: Recombinant protein B55 (regulatory sub-unit of PP2A) expressed in bacteria (Homo sapiens (Human))
Experiment: SPOT dodecapeptide membrane, overlay with purified protein, antibody detection

binding: binds
Binder: ARTSPLQTPAAPGAAAGPAL [Bcl-2 Site 1-B peptidic sequence 67-…-86]
